In this series the target is MeCP2 MBD (UniProt P51608). Kind of series: ITC. Particulars: 150 mM NaCl, ~1000-fold affinity decrease, not reliably determined, ITC: Tris 50 mM, pH 7, 20 °C (also 15 and 17.5 °C; Pipes or phosphate 50 mM, pH 7), no added NaCl unless stated, protein 3-5 uM in cell, dsDNA 50 uM titrant, recombinant protein, protein details: His-tag removed (PreScission).

The chains behind the UniProt entries cited, without tags or fusion partners. Residues count along the entry.
UniProt P51608, 78-162: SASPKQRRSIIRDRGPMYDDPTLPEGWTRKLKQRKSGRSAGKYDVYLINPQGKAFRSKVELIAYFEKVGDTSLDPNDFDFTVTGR

Construct, isoform or probe ends are uncertain for at least one entry. Weaker means in comparison with the reference protein, sequence or condition of that experiment. At least one verdict was read from the data and is not stated in words by the source.

On to “GCCATGCCCTGGAACGGAACTCTCCTAATAAAAGATGTATCATTT (double strand) [BDNF promoter IV 45 bp mCpG]”, for which the binding result (5-methylcytosine at C15 of strand 1 and C30 of strand 2 (symmetric mCpG)) is “binds more weakly”.

Consider “GCCATGCCCTGGAACGGAACTCTCCTAATAAAAGATGTATCATTT (double strand) [BDNF promoter IV 45 bp unmethylated]”, for which the binding result is recorded as “binds more weakly”.

For the origin of these results see article PMC5282554.
